For the test, the target named is T1, BIK1 (pGBKT7-BIK1) (A. thaliana) (UniProt O48814).
T1 sequence: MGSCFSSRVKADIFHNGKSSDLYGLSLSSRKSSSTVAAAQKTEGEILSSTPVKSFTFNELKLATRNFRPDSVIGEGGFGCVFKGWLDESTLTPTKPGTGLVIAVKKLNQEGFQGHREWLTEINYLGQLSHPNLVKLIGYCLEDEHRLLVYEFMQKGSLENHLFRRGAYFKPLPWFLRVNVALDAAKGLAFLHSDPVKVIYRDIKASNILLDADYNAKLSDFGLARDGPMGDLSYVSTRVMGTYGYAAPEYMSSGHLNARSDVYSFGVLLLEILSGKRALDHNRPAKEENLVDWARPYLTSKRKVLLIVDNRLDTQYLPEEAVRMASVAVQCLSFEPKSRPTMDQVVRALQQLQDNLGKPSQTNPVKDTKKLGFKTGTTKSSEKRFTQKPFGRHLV
The experiment in a line: two-hybrid; GAL4 system (Clontech), yeast AH109; BIK1 in pGBKT7, kinase domains in pGADT7; His reporter on medium with 3 mM 3-AT and lacZ reporter.

Results are given in words; binding and its absence hold for the method and conditions named. Some entries that bind do so weakly or less than the wild type.

B1: PEPR1 kinase domain (pGADT7-PEPR1KD) (domain or fragment, UniProt Q9SSL9 827-1123)
chain: LNEKYTIGRGAHGIVYRASLGSGKVYAVKRLVFASHIRANQSMMREIDTIGKVRHRNLIKLEGFWLRKDDGLMLYRYMPKGSLYDVLHGVSPKENVLDWSARYNVALGVAHGLAYLHYDCHPPIVHRDIKPENILMDSDLEPHIGDFGLARLLDDSTVSTATVTGTTGYIAPENAFKTVRGRESDVYSYGVVLLELVTRKRAVDKSFPESTDIVSWVRSALSSSNNNVEDMVTTIVDPILVDELLDSSLREQVMQVTELALSCTQQDPAMRPTMRDAVKLLEDVKHLARSCSSDSVR
B1: the binding entry was “binds”.

B2: RLK7 kinase domain (pGADT7-RLK7KD) (domain or fragment, UniProt F4I2N7 671-977)
chain: LIGRGGCGDVYRVVLGDGKEVAVKHIRCSSTQKNFSSAMPILTEREGRSKEFETEVQTLSSIRHLNVVKLYCSITSDDSSLLVYEYLPNGSLWDMLHSCKKSNLGWETRYDIALGAAKGLEYLHHGYERPVIHRDVKSSNILLDEFLKPRIADFGLAKILQASNGGPESTHVVAGTYGYIAPAEYGYASKVTEKCDVYSFGVVLMELVTGKKPIEAEFGESKDIVNWVSNNLKSKESVMEIVDKKIGEMYREDAVKMLRIAIICTARLPGLRPTMRSVVQMIEDAEPCRLMGIVISKESDVKVKEIS
For the molecule B2, the binding entry was “no binding”.

The record behind these values is publication PMC4154866.
